Reference: US20090312253A1
No constants are given. Whether binding was seen depends on the method and setting. In cells and extracts the contact can be indirect. Some entries that bind do so weakly or less than the wild type. Tags and fused reporters may be left off the sequences shown.

Protein sequences, listed by entry. Tags and fused reporters are not part of them. Residues count along the entry.
UniProt Q91VN0, residues 31-287: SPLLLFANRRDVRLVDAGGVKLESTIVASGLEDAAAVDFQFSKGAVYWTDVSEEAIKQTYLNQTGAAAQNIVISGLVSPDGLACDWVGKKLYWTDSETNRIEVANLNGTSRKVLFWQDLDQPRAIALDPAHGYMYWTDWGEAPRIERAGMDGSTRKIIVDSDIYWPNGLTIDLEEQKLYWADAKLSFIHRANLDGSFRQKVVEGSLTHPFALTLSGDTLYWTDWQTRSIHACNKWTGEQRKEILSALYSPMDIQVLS

Biological target: first β-propeller domain of mouse LRP5 with HA tag (LRP5-PD1-HA) (mouse) (UniProt Q91VN0)
Experiment: S-protein-agarose pulldown of LRP5-PD1-HA conditioned medium with S-tagged Dkk2C2, anti-HA Western blot

B1: S-tagged Dkk2C2 (recombinant C-terminal cysteine-rich domain of mouse Dkk2, amino acids Met172-Ile259, with N-terminal S tag and thrombin cleavage site) (ligand, not shown: small tags and cut ends)
chain: MPHIKGHEGDPCLRSSDCIDGFCCARHFWTKICKPVLHQGEVCTKQRKKGSHGLEIFQRCDCAKGLSCKVWKDATYSSKARLHVCQKI
B1 was tested, and the binding was “binds”.
